Data reported in patent US4123552A, “Compositions for preserving crops and animal feedstuffs” (Chevron Research Company, priority 1975, dated 1978).

Test: Visual corrosion damage to the can holding treated corn
Details: rating 1-10 basis, 10 heavy corrosion

SMILES | Corrosion 42 Days (2 Oz/Bu) | Corrosion 42 Days (3 Oz/Bu) | Corrosion 83 Days (3 Oz/Bu) | Corrosion 42 Days (4 Oz/Bu) | Corrosion 83 Days (4 Oz/Bu) | Corrosion 42 Days (5 Oz/Bu) | Corrosion 83 Days (5 Oz/Bu) | Corrosion 42 Days (6 Oz/Bu) | Corrosion 83 Days (6 Oz/Bu)
CCC(=O)OCOCOC(=O)CC [Oxybismethylene Propionate, Oxybismethylene Bispropionate] | 0 | 0 | 0.5 | 0.5 | 0.5 | 1 | 1 | – | –
CCC(=O)O [Propionic acid, reference compound] | 0 | 0 | – | 0 | 1 | – | – | 2 | 3
